For the assay, the target named is phosphatidylinositol‐4‐phosphate 5‐kinase type‐1 alpha (human (endogenous in C4‐2)) (UniProt Q99755). Description: co-IP; C4‐2 cell lysate; antibody against PIP5K1α used to pull down the immune complexes, antibody to IgG as negative control; immunoblot with antibodies against FcγRIIIa and AR. For orientation: Immunoblotting shows a protein as a band on a membrane.

Protein sequences, listed by entry. Tags and fused reporters are not part of them. Residues count along the entry.
UniProt Q99755: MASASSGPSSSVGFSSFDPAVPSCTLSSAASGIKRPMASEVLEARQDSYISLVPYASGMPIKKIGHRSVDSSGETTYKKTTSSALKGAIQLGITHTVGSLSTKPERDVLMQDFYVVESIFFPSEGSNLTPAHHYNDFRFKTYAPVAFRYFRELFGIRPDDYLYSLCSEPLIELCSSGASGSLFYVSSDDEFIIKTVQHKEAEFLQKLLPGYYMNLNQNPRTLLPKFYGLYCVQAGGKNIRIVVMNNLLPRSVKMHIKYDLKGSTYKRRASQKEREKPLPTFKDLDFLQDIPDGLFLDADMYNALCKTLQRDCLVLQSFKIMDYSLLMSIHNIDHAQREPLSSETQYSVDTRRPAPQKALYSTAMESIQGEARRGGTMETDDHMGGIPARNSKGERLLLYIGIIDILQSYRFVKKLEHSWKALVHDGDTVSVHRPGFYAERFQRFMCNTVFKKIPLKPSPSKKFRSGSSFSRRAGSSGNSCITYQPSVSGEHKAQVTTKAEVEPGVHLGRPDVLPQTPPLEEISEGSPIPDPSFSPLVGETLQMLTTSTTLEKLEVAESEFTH
UniProt P10275: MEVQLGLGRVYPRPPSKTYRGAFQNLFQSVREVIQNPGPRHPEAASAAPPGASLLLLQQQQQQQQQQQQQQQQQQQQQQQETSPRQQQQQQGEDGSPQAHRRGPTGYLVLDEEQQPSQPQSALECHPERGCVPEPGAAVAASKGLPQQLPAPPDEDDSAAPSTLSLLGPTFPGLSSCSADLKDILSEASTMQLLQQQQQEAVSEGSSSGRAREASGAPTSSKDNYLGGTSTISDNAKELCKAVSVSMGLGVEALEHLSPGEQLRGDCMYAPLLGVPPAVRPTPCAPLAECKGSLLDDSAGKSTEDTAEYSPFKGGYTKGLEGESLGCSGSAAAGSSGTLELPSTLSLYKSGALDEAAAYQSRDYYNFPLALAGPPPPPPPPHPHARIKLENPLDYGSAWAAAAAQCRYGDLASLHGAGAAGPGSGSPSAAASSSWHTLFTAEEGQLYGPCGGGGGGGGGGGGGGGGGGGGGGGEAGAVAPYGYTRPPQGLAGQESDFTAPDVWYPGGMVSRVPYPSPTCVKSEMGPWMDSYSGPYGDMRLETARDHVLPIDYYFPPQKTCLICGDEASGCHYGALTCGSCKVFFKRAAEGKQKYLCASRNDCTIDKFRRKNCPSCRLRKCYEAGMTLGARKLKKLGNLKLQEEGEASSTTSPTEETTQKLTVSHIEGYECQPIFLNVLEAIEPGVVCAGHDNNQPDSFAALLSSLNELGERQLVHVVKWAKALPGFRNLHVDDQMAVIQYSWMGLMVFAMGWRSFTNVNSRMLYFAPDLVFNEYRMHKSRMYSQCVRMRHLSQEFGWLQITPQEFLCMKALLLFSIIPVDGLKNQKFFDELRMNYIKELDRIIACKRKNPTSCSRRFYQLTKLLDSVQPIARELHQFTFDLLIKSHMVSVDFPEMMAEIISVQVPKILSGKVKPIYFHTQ
UniProt P08637, residues 17-254: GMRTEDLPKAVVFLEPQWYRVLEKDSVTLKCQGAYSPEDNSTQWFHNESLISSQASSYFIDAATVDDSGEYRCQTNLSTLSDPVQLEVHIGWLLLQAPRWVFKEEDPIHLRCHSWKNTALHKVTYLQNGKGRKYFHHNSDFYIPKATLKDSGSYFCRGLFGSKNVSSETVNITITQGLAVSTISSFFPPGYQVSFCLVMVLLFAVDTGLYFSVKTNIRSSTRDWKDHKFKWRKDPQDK

From publication PMC9251882 come the findings set out here.

These are yes or no findings as the source states them, for the method shown. Binding seen in cells or lysates may run through a third protein. Some entries that bind do so weakly or less than the wild type.

Consider “androgen receptor (from UniProt P10275 1-920)”, for which the binding entry is “binds”.
For “low‐affinity immunoglobulin gamma Fc region receptor III‐A (from UniProt P08637 17-254)”, the binding result is listed as “binds”.
